# Source: the supplement of paper PMC8728848
# This is one part of the list.
# B1: PX14379D-pdi-530-26-530 (Parabacteroides distasonis) (protein)
# chain: DETVYDKLPADDFGQSTAELNALIGNSHNTMKKFWTEYMHLSECSGSMAVTPTRRGGDWYDGGQYREIYMHTWTSQTSRVKSAWKAATEAIGTCNEAIRKLQNSEILTEEEKAQDVADLRGVRAFWIYVMMDYWGNIPLLTEFHPTDKVFPGNSSRQEVFDWLIQEVEEIKDICPPATTENYGSFTQGAAYSLLAKLYLNAEAWGVTFSGNAYQKVIDNCDKVMAMGYILEPNWKDNFSVTNENSKEAILAATFSSSDTGNDGNVKNELHNNTLHYKDYLSLGITASGTWNGICAQPEYVRLFDEEDARLDGTFLTGLMIDKSTGKPIMTDHNNELNHTIDVNMIPGMEYDGTNWSAVEQHDGARCFKWEFASDLTSSMGNDFHIFRLADIYLMKAEALLRGGGSVSEATALVNTIRERGYGNSDHNYATVTLKEVQLERRLELAWEVYSRQDDIRFGCFTTGMWPQSNCERKADDYLKLLPVSQDAWQVNPNLKQNPGYAAFSK
# Assays:
# Assay in all cases: glycan array binding signal (z-score within array); higher = stronger binding
# Settings in all cases: glycan notation: IUPAC condensed, linker removed
# [1] = biological target: Neu5Ac(a2-6)Gal(b1-4)GlcNAc(b1-2)Man(a1-3)[Man(a1-6)]Man(b1-4)GlcNAc(b1-4)GlcNAc
# In short: (§1)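 From the Consortium for Functional Glycomics database, 3228 arrays were curated, keeping only those whose protein sequence was available. Binding is given as a within-array Z-score averaged across arrays sharing a protein sequence and across linkers. Negative Z-scores can be read as non-binding.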
# [2] = biological target: Neu5Ac(a2-6)Gal(b1-4)GlcNAc(b1-2)Man(a1-3)[Neu5Ac(a2-3)Gal(b1-4)GlcNAc(b1-2)Man(a1-6)]Man(b1-4)GlcNAc(b1-4)GlcNAc
# In short: as §1
# [3] = biological target: Neu5Ac(a2-6)Gal(b1-4)GlcNAc(b1-2)Man(a1-3)[Neu5Ac(a2-6)Gal(b1-4)GlcNAc(b1-2)Man(a1-6)]Man(b1-4)GlcNAc(b1-4)GlcNAc
# In short: as §1
# [4] = biological target: Neu5Ac(a2-6)Gal(b1-4)GlcNAc(b1-2)Man(a1-3)[Neu5Ac(a2-6)Gal(b1-4)GlcNAc(b1-2)Man(a1-6)]Man(b1-4)GlcNAc(b1-4)[Fuc(a1-6)]GlcNAc
# In short: as §1
# [5] = biological target: Neu5Ac(a2-6)Gal(b1-4)GlcNAc(b1-2)Man(a1-6)Man(b1-4)GlcNAc(b1-4)GlcNAc
# In short: as §1
# [6] = biological target: Neu5Ac(a2-6)Gal(b1-4)GlcNAc(b1-2)Man(a1-6)[Gal(b1-4)GlcNAc(b1-2)Man(a1-3)]Man(b1-4)GlcNAc(b1-4)GlcNAc
# In short: as §1
# [7] = biological target: Neu5Ac(a2-6)Gal(b1-4)GlcNAc(b1-2)Man(a1-6)[GlcNAc(b1-2)Man(a1-3)]Man(b1-4)GlcNAc(b1-4)GlcNAc
# In short: as §1
# [8] = biological target: Neu5Ac(a2-6)Gal(b1-4)GlcNAc(b1-2)Man(a1-6)[Man(a1-3)]Man(b1-4)GlcNAc(b1-4)GlcNAc
# In short: as §1
# [9] = biological target: Neu5Ac(a2-6)Gal(b1-4)GlcNAc(b1-2)[Neu5Ac(a2-6)Gal(b1-4)GlcNAc(b1-4)]Man(a1-3)[GlcNAc(b1-4)][Neu5Ac(a2-6)Gal(b1-4)GlcNAc(b1-2)[Neu5Ac(a2-6)Gal(b1-4)GlcNAc(b1-6)]Man(a1-6)]Man(b1-4)GlcNAc(b1-4)GlcNAc
# In short: as §1
# [10] = biological target: Neu5Ac(a2-6)Gal(b1-4)GlcNAc(b1-2)[Neu5Ac(a2-6)Gal(b1-4)GlcNAc(b1-4)]Man(a1-3)[GlcNAc(b1-4)][Neu5Ac(a2-6)Gal(b1-4)GlcNAc(b1-4)Man(a1-6)]Man(b1-4)GlcNAc(b1-4)GlcNAc
# In short: as §1
# [11] = biological target: Neu5Ac(a2-6)Gal(b1-4)GlcNAc(b1-2)[Neu5Ac(a2-6)Gal(b1-4)GlcNAc(b1-6)]Man(a1-6)[Neu5Ac(a2-6)Gal(b1-4)GlcNAc(b1-2)Man(a1-3)][GlcNAc(b1-4)]Man(b1-4)GlcNAc(b1-4)GlcNAc
# In short: as §1
# [12] = biological target: Neu5Ac(a2-6)Gal(b1-4)GlcNAc(b1-3)Gal(b1-3)GlcNAc
# In short: as §1
# [13] = biological target: Neu5Ac(a2-6)Gal(b1-4)GlcNAc(b1-3)Gal(b1-4)GlcNAc
# In short: as §1
# [14] = biological target: Neu5Ac(a2-6)Gal(b1-4)GlcNAc(b1-3)Gal(b1-4)GlcNAc(b1-2)Man(a1-3)[Neu5Ac(a2-6)Gal(b1-4)GlcNAc(b1-3)Gal(b1-4)GlcNAc(b1-2)Man(a1-6)]GalNAc
# In short: as §1
# [15] = biological target: Neu5Ac(a2-6)Gal(b1-4)GlcNAc(b1-3)Gal(b1-4)GlcNAc(b1-3)Gal(b1-4)GlcNAc
# In short: as §1
# [16] = biological target: Neu5Ac(a2-6)Gal(b1-4)GlcNAc(b1-3)Gal(b1-4)GlcNAc(b1-3)Gal(b1-4)GlcNAc(b1-2)Man(a1-3)[Neu5Ac(a2-6)Gal(b1-4)GlcNAc(b1-3)Gal(b1-4)GlcNAc(b1-3)Gal(b1-4)GlcNAc(b1-2)Man(a1-6)]GalNAc
# In short: as §1
# [17] = biological target: Neu5Ac(a2-6)Gal(b1-4)GlcNAc(b1-3)Gal(b1-4)GlcNAc(b1-3)GalNAc
# In short: as §1
# [18] = biological target: Neu5Ac(a2-6)Gal(b1-4)GlcNAc(b1-3)Gal(b1-4)GlcNAc(b1-3)[Neu5Ac(a2-6)Gal(b1-4)GlcNAc(b1-3)Gal(b1-4)GlcNAc(b1-6)]GalNAc
# In short: as §1
# [19] = biological target: Neu5Ac(a2-6)Gal(b1-4)GlcNAc(b1-3)Gal(b1-4)GlcNAc(b1-6)[Gal(b1-3)]GalNAc
# In short: as §1
# [20] = biological target: Neu5Ac(a2-6)Gal(b1-4)GlcNAc(b1-3)Gal(b1-4)[Fuc(a1-3)]GlcNAc(b1-3)Gal(b1-4)[Fuc(a1-3)]GlcNAc
# In short: as §1
# [21] = biological target: Neu5Ac(a2-6)Gal(b1-4)GlcNAc(b1-3)GalNAc
# In short: as §1
# [22] = biological target: Neu5Ac(a2-6)Gal(b1-4)GlcNAc(b1-3)[Neu5Ac(a2-6)Gal(b1-4)GlcNAc(b1-6)]GalNAc
# In short: as §1
# [23] = biological target: Neu5Ac(a2-6)Gal(b1-4)GlcNAc(b1-6)GalNAc
# In short: as §1
# [24] = biological target: Neu5Ac(a2-6)Gal(b1-4)GlcNAc(b1-6)[Gal(b1-3)GlcNAc(b1-3)]Gal(b1-4)Glc
# In short: as §1
# [25] = biological target: Neu5Ac(a2-6)Gal(b1-4)GlcNAc(b1-6)[Gal(b1-3)]GalNAc
# In short: as §1
# [26] = biological target: Neu5Ac(a2-6)Gal(b1-4)GlcNAc6S
# In short: as §1
# Neu5Ac(a2-6)GalNAc = biological target: Neu5Ac(a2-6)GalNAc
# In short: as §1
# [27] = biological target: Neu5Ac(a2-6)GalNAc(b1-4)GlcNAc
# In short: as §1
# [28] = biological target: Neu5Ac(a2-6)GalNAc(b1-4)GlcNAc6S
# In short: as §1
# [29] = biological target: Neu5Ac(a2-6)GlcNAc(b1-4)GlcNAc
# In short: as §1
# [30] = biological target: Neu5Ac(a2-6)GlcNAc(b1-4)GlcNAc(b1-4)GlcNAc
# In short: as §1
binder,measurement,setting,value
B1,glycan array binding signal (z-score),[1],-0.44
same,glycan array binding signal (z-score),[2],-0.286
same,glycan array binding signal (z-score),[3],0.11
same,glycan array binding signal (z-score),[4],0.855
same,glycan array binding signal (z-score),[5],-0.263
same,glycan array binding signal (z-score),[6],-0.797
same,glycan array binding signal (z-score),[7],0.148
same,glycan array binding signal (z-score),[8],-1.24
same,glycan array binding signal (z-score),[9],0.011
same,glycan array binding signal (z-score),[10],-0.629
same,glycan array binding signal (z-score),[11],-0.019
same,glycan array binding signal (z-score),[12],0.175
same,glycan array binding signal (z-score),[13],-0.23
same,glycan array binding signal (z-score),[14],-0.235
same,glycan array binding signal (z-score),[15],-0.566
same,glycan array binding signal (z-score),[16],1.43
same,glycan array binding signal (z-score),[17],-1.03
same,glycan array binding signal (z-score),[18],-0.731
same,glycan array binding signal (z-score),[19],1.51
same,glycan array binding signal (z-score),[20],-0.012
same,glycan array binding signal (z-score),[21],0.577
same,glycan array binding signal (z-score),[22],0.452
same,glycan array binding signal (z-score),[23],-0.857
same,glycan array binding signal (z-score),[24],0.598
same,glycan array binding signal (z-score),[25],0.168
same,glycan array binding signal (z-score),[26],0.206
same,glycan array binding signal (z-score),Neu5Ac(a2-6)GalNAc,-0.426
same,glycan array binding signal (z-score),[27],0.187
same,glycan array binding signal (z-score),[28],-0.637
same,glycan array binding signal (z-score),[29],0.256
same,glycan array binding signal (z-score),[30],0.516

# Part of the list above, set out differently:
binder | measurement | setting | value
B1 | glycan array binding signal (z-score) | [8] | -1.24
same | glycan array binding signal (z-score) | [20] | -0.012
